According to US20170114060A1 (priority 2014, published 2017):
Some results were stated once for a whole list of compounds, not compound by compound.

Chains of the proteins cited; added tags and fusions are not shown.
UniProt Q96D31, whole entry: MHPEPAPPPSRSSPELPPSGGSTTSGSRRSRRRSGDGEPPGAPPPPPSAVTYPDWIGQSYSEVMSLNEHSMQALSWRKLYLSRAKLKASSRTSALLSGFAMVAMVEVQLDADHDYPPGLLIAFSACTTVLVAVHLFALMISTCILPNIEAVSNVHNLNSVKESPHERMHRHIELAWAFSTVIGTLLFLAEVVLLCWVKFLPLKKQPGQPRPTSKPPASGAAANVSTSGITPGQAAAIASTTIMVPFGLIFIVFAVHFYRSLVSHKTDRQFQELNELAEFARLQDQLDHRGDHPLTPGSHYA

Legend:
Assay type in all cases: cell-based
[1] = target: CRAC/Orai1 channels (Homo sapiens, UniProt Q96D31)
[2] = system: Ebola VP40 (eVP40) VLPs; details: 50 μM
[3] = system: Marburg VP40 (mVP40) VLPs; details: 50 μM

| SMILES | concentration range in which active as CRAC channel inhibitor [1] | reduction of Ebola VP40 VLP budding/production [2] | reduction of Marburg VP40 VLP budding/formation [3] |
| --- | --- | --- | --- |
| CC1=C(c2cnc(NC(=O)c3c(F)cccc3F)cn2)CN(c2ncc(C)s2)CC1 [R02959, 2,6-difluoro-N-{5-[4-methyl-1-(5-methyl-thiazol-2-yl)-1,2,5,6-tetrahydro-pyridin-3-yl]-pyrazin-2-yl}-benzamide] | 1 to 50 µM |  |  |
| COc1ccc(OC)c(-c2ccc(NC(=O)c3ccncc3F)cc2)c1 [Synta66, N-(2′,5′-dimethoxy[1,1′-biphenyl]-4-yl)-3-fluoro-4-pyridinecarboxamide] | 1 to 50 µM | up to 100 fold | up to 100 fold |
